Some of these results come from one statement about several compounds together.
Test system: thromboxane B2 (TXB2) produced by COX-1
Assay: ex vivo serum thromboxane B2 after oral administration
Settings: rat; oral dose 50–150 times the ED50 value for in vivo COX-2 inhibition

Question: Which “inhibition of serum thromboxane B2 production” value does the source give for `CCc1ccc(Nc2c(F)c(F)cc(F)c2F)c(CC(=O)OCC(=O)O)c1` [6(a), carboxymethyl 5-ethyl-2-(2′,3′,5′,6′-tetrafluoroanilino)phenylacetate] here?
Answer: < 50%

Question: With `Cc1ccc(Nc2c(F)cc(F)cc2Cl)c(CC(=O)O)c1` [Example 1(g), 5-methyl-2-(2′,4′-difluoro-6′-chloroanilino)phenylacetic acid] as the compound, how does the “inhibition of serum thromboxane B2 production” value read?
Answer: < 50%

Reference: US7115662B2, “Certain 5-alkyl-2-arylaminophenylacetic acids and derivatives” (Novartis AG, priority 1997, dated 2006)
